In PubChem BioAssay AID330 (DTP/NCI, 2004):
The list is a part of this screen's results and no random one: it is rich in T/C values a quarter to a half above the control, in often repeated tests (any T/C) and in doses without a T/C. Further doses and runs are listed elsewhere. T/C: endpoint of the treated group in % of that of the vehicle group. Some entries give survivors of the animals treated and no T/C: the source holds a T/C of zero for them, seemingly a mark for toxic or unscored doses. Some doses without a T/C left all or most animals alive at the check, yet need not have been tolerated: survival well below the control is almost never listed, so the zero probably covers shortened survival too. Counts of survivors are from the toxicity check (mostly the fifth day) where no day follows; animals may have died later. Schedule codes are those of the source, read here as Q, the interval in days (D) or hours (H), X, the number of doses. Some doses were run more than once; their values stand side by side, smallest first. Some molecules as drawn cover several salts, stereoisomers or complexes of the source; a dose is that of the sample tested. For survival time, this PubChem deposit counts one and a half times the control or more as active, and values a quarter to a half above the control carry no call in these data; other NCI protocols may use other cut-offs. Some T/C values carry the count of animals alive at the toxicity check (mostly the fifth day); where none is given, no animal had died by that day.

Tested on: P388 leukemia ip, CD2F1 mice, survival T/C
Assay: NCI In Vivo Anticancer Drug Screen. Data for tumor model P388 Leukemia (intraperitoneal) in CD2F1 (CDF1) mice
Details: T/C endpoint: median survival time, higher T/C = longer survival
[1] = dose: 200.0 mg/kg/injection, schedule: Q01DX005 (ip), vehicle: saline with Tween-80
[2] = dose: 50.0 mg/kg/injection, schedule: Q01DX005 (ip), vehicle: Klucel (hydroxypropylcellulose) (HPC)
[3] = dose: 100.0 mg/kg/injection, schedule: Q01DX005 (ip), vehicle: Klucel (hydroxypropylcellulose) (HPC)
[4] = dose: 200.0 mg/kg/injection, schedule: Q01DX005 (ip), vehicle: Klucel (hydroxypropylcellulose) (HPC)
[5] = dose: 200.0 mg/kg/injection, schedule: Q01DX009 (ip), vehicle: saline
[6] = dose: 50.0 mg/kg/injection, schedule: Q01DX005 (ip), vehicle: saline with Tween-80
[7] = dose: 240.0 mg/kg/injection, schedule: Q01DX005 (ip), vehicle: saline with Tween-80
[8] = dose: 100.0 mg/kg/injection, schedule: Q01DX009 (ip), vehicle: Klucel (hydroxypropylcellulose) (HPC)
[9] = dose: 200.0 mg/kg/injection, schedule: Q01DX009 (ip), vehicle: Klucel (hydroxypropylcellulose) (HPC)
[10] = dose: 50.0 mg/kg/injection, schedule: Q01DX009 (ip), vehicle: saline with Tween-80
[11] = dose: 100.0 mg/kg/injection, schedule: Q01DX009 (ip), vehicle: saline with Tween-80
[12] = dose: 200.0 mg/kg/injection, schedule: Q01DX009 (ip), vehicle: saline with Tween-80
[13] = dose: 240.0 mg/kg/injection, schedule: Q01DX005 (ip), vehicle: Klucel (hydroxypropylcellulose) (HPC)
[14] = dose: 25.0 mg/kg/injection, schedule: Q01DX009 (ip), vehicle: saline with Tween-80
[15] = dose: 120.0 mg/kg/injection, schedule: Q01DX005 (ip), vehicle: Klucel (hydroxypropylcellulose) (HPC)

CCC(CO)N=C(C1=C(O)c2ccccc2C1=O)c1ccccc1 (stereo unspecified)
survivor count (dose: 400.0 mg/kg/injection, schedule: Q04DX002 (ip), vehicle: saline with Tween-80): 3 of 6

Cc1ccc(N(C)c2cc(=O)n(C)c(=O)[nH]2)cc1C
survivor count [1]: 4 of 5

COc1cc(NN=C(C#N)C#N)c(OC)cc1Cl
survivor count [2]: 2 of 5 | survivor count [3]: 0 of 5 | survivor count [4]: 0 of 5

N#C[S-].N#C[S-].[Au+3].[Au+3].[CH3-].[CH3-].[CH3-].[CH3-]
survivor count (dose: 200.0 mg/kg/injection, schedule: Q04DX003 (ip), vehicle: saline with Tween-80): 3 of 6

OCC(O)C(O)C(O)/C=N\Nc1ccccc1 (stereo unspecified)
survivor count [5]: 6 of 6

C/C(=N\NC(=S)NCc1ccccc1)c1nccnc1C
T/C (dose: 12.5 mg/kg/injection, schedule: Q01DX005 (ip), vehicle: saline with Tween-80): 130 and 136 % of control | survivor count (dose: 25.0 mg/kg/injection, schedule: Q01DX005 (ip), vehicle: saline with Tween-80): 4 of 6 and 5 of 6 | survivor count [6]: 2 of 6 | survivor count (dose: 100.0 mg/kg/injection, schedule: Q01DX005 (ip), vehicle: saline with Tween-80): 0 of 6 | survivor count [1]: 0 of 6

CCOC(=O)C(CO)NC(=O)c1cnc2ccccc2c1 (stereo unspecified)
survivor count [7]: 6 of 6

Cn1c(=O)c2c(nc(NCC[N+](C)(C)Cc3ccc(Cl)cc3)n2C)n(C)c1=O
survivor count (dose: 50.0 mg/kg/injection, schedule: Q01DX009 (ip), vehicle: Klucel (hydroxypropylcellulose) (HPC)): 0 of 6 | survivor count [8]: 0 of 6 | survivor count [9]: 0 of 6

C[n+]1c(/C=C/c2ccc(N3CCCC3)cc2)sc2ccccc21
survivor count (dose: 12.5 mg/kg/injection, schedule: Q01DX009 (ip), vehicle: saline): 1 of 6 | survivor count (dose: 50.0 mg/kg/injection, schedule: Q01DX009 (ip), vehicle: saline): 2 of 6 | survivor count (dose: 100.0 mg/kg/injection, schedule: Q01DX009 (ip), vehicle: saline): 1 of 6 | survivor count [5]: 0 of 6

[Se]=P(N1CC1)(N1CC1)N1CC1
survivor count (dose: 55.0 mg/kg/injection, schedule: Q01DX001 (ip), vehicle: Klucel (hydroxypropylcellulose) (HPC)): 0 of 6

O=C(c1ccccc1Cl)n1c(Cl)c(/C=N\Nc2ccc([N+](=O)[O-])cc2)c2ccccc21
survivor count [10]: 1 of 6 | survivor count [11]: 0 of 6 | survivor count [12]: 0 of 6

CCCN(C)CC(=O)NC(Cc1ccccc1)c1ccccc1 (stereo unspecified)
survivor count [13]: 1 of 6

CC(=O)Nc1ccc(C(=O)C=O)cc1
T/C [14]: 130 % of control | T/C [10]: 125 and 127 % of control | T/C [11]: 137 % of control | survivor count [12]: 5 of 6

O=S1(=O)C(c2ccc(F)cc2)=C(O)c2cc3ccccc3nc21
survivor count [12]: 3 of 6

Cc1cc2c(cc1C)C(=O)c1c(O)c3c(c(O)c1C2=O)C[C@@](O)(C(=O)CO)C[C@@H]3OC1CC(N)C(O)C(C)O1 (stereo partly specified)
T/C (dose: 1.56 mg/kg/injection, schedule: Q04DX003 (ip), vehicle: water): 136 % of control | T/C (dose: 12.5 mg/kg/injection, schedule: Q04DX003 (ip), vehicle: water): 130 % of control

O=C(CCCCl)CC(O)(C(F)(F)F)C(F)(F)F
survivor count (dose: 400.0 mg/kg/injection, schedule: Q04DX003 (ip), vehicle: saline with Tween-80): 1 of 6

O=C(NC(=O)C1CCC(=O)N1Cc1ccccc1)NC1CCC(=O)N1Cc1ccccc1 (stereo unspecified)
survivor count [7]: 6 of 6

ClC(Cl)(Cl)CN1CCCCC1Cc1ccccc1 (stereo unspecified)
survivor count [15]: 0 of 6 | survivor count [13]: 0 of 6

CC1C[C@@H]2[C@H]([C@@H](O)C[C@@]3(C)[C@H]2CC[C@]3(O)C(=O)CF)[C@@]2(C)CCC(=O)C=C12 (stereo partly specified)
survivor count (dose: 400.0 mg/kg/injection, schedule: Q01DX009 (ip), vehicle: saline with Tween-80): 6 of 6

O=S(=O)([O][Hg][CH2]C1Cc2ccccc2O1)[O][Hg][CH2]C1Cc2ccccc2O1 (stereo unspecified)
T/C (dose: 16.5 mg/kg/injection, schedule: Q01DX009 (ip), vehicle: saline with Tween-80): 136 % of control [5 of 6 alive] | T/C [14]: 140 % of control [4 of 6 alive] | survivor count (dose: 37.5 mg/kg/injection, schedule: Q01DX009 (ip), vehicle: saline with Tween-80): 2 of 6

Nc1ccc2cc3ccc(N)cc3nc2c1
T/C (dose: 7.5 mg/kg/injection, schedule: Q01DX005 (ip), vehicle: saline): 126 % of control | T/C (dose: 16.5 mg/kg/injection, schedule: Q01DX009 (ip), vehicle: saline): 125 % of control | T/C (dose: 25.0 mg/kg/injection, schedule: Q01DX009 (ip), vehicle: saline, evaluated on day 20): 127 % of control [5 of 6 alive] | T/C (dose: 25.0 mg/kg/injection, schedule: Q01DX009 (ip), vehicle: saline, evaluated on day 30): 135 % of control | survivor count (dose: 30.0 mg/kg/injection, schedule: Q01DX005 (ip), vehicle: saline): 5 of 6 | T/C (dose: 37.5 mg/kg/injection, schedule: Q01DX009 (ip), vehicle: saline): 125 % of control [5 of 6 alive] | survivor count (dose: 60.0 mg/kg/injection, schedule: Q01DX005 (ip), vehicle: suspension in saline): 2 of 6 | survivor count (dose: 100.0 mg/kg/injection, schedule: Q04DX003 (ip), vehicle: saline): 4 of 6 | survivor count (dose: 120.0 mg/kg/injection, schedule: Q01DX005 (ip), vehicle: suspension in saline): 0 of 6 | survivor count (dose: 200.0 mg/kg/injection, schedule: Q04DX003 (ip), vehicle: saline): 0 of 6 | survivor count (dose: 240.0 mg/kg/injection, schedule: Q01DX005 (ip), vehicle: suspension in saline): 0 of 6

O=c1c2ccccc2nc(-c2ccccc2)n1-c1cc(C(F)(F)F)cc(C(F)(F)F)c1
survivor count [14]: 6 of 6

COc1cc(/C=C2\NC(=S)N(c3ccccc3)C2=O)ccc1O
survivor count [6]: 5 of 5

C=C1C(=O)OC2/C=C(\C)CC/C=C(/C=O)C(OC(=O)C(C)C)C(O)C12 (stereo unspecified)
survivor count (dose: 16.0 mg/kg/injection, schedule: Q01DX009 (ip), vehicle: saline + alcohol): 1 of 4 | survivor count (dose: 32.0 mg/kg/injection, schedule: Q01DX009 (ip), vehicle: saline + alcohol): 1 of 4

O=C1c2ccc3ccccc3c2CCC1C1([n+]2ccccc2)CCc2c(ccc3ccccc23)C1=O (stereo unspecified)
T/C (dose: 50.0 mg/kg/injection, schedule: Q01DX005 (ip), vehicle: Klucel (hydroxypropylcellulose) (HPC), evaluated on day 20): 108 and 112 % of control | T/C (dose: 50.0 mg/kg/injection, schedule: Q01DX005 (ip), vehicle: Klucel (hydroxypropylcellulose) (HPC), evaluated on day 30): 121 and 124 % of control | survivor count [3]: 1 of 5 | survivor count [4]: 0 of 5

COC(=O)c1cc2cccn2cn1
survivor count [10]: 6 of 6

O=[N+]([O-])c1ccc(C2=C[P+](c3ccccc3)(c3ccccc3)c3ccccc3O2)cc1
survivor count (dose: 12.5 mg/kg/injection, schedule: Q01DX005 (ip), vehicle: Klucel (hydroxypropylcellulose) (HPC)): 5 of 5 | survivor count (dose: 25.0 mg/kg/injection, schedule: Q01DX005 (ip), vehicle: Klucel (hydroxypropylcellulose) (HPC)): 4 of 5 | survivor count [2]: 0 of 5 | survivor count [3]: 0 of 5 | survivor count [4]: 0 of 5

O=C1CCNC(=O)N1OS(=O)(=O)c1ccccc1
survivor count [8]: 5 of 6 | survivor count [9]: 4 of 6

CC1=CC(=C2C(=O)c3ccccc3C2=O)C=C(C)N1CC#CCN1CCCCC1
survivor count (dose: 60.0 mg/kg/injection, schedule: Q01DX005 (ip), vehicle: Klucel (hydroxypropylcellulose) (HPC)): 5 of 6 | survivor count [15]: 4 of 6

CCC(SC)C(=O)N(C)c1ccccc1 (stereo unspecified)
survivor count [10]: 6 of 6

O=C(Nc1ccc(CCc2ccc(NC(=O)C34CC5CC(CC(C5)C3)C4)cc2)cc1)C12CC3CC(CC(C3)C1)C2
survivor count [1]: 6 of 6
